# Data as given in the supplement of paper PMC8728848.
# This is one part of the list.
# How the values were obtained:
# Assay in all cases: glycan array binding signal (z-score within array); higher = stronger binding
# Settings in all cases: glycan notation: IUPAC condensed, linker removed
# [1] = target: Neu5Ac(a2-6)GlcNAc(b1-4)GlcNAc(b1-4)GlcNAc
# Procedure, shortened: (§1)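 Columns mapping to the same glycan were averaged after glycan names were converted to IUPAC-condensed notation. The data come from 3228 arrays in the Consortium for Functional Glycomics database, limited to those with an available protein sequence. Binding is reported as a within-array Z-score averaged across arrays of one protein sequence and across linkers.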
# Neu5Ac(a2-8)Neu5Ac = target: Neu5Ac(a2-8)Neu5Ac
# Procedure, shortened: as §1
# [2] = target: Neu5Ac(a2-8)Neu5Ac(a2-3)Gal(b1-3)GalNAc(b1-4)[Neu5Ac(a2-3)]Gal(b1-4)Glc
# Procedure, shortened: as §1
# [3] = target: Neu5Ac(a2-8)Neu5Ac(a2-3)Gal(b1-3)GalNAc(b1-4)[Neu5Ac(a2-8)Neu5Ac(a2-3)]Gal(b1-4)Glc
# Procedure, shortened: as §1
# [4] = target: Neu5Ac(a2-8)Neu5Ac(a2-3)Gal(b1-4)Glc
# Procedure, shortened: as §1
# [5] = target: Neu5Ac(a2-8)Neu5Ac(a2-3)Gal(b1-4)GlcNAc
# Procedure, shortened: as §1
# [6] = target: Neu5Ac(a2-8)Neu5Ac(a2-3)[Gal(b1-3)GalNAc(b1-4)]Gal(b1-4)Glc
# Procedure, shortened: as §1
# [7] = target: Neu5Ac(a2-8)Neu5Ac(a2-3)[GalNAc(b1-4)]Gal(b1-4)Glc
# Procedure, shortened: as §1
# [8] = target: Neu5Ac(a2-8)Neu5Ac(a2-8)Neu5Ac
# Procedure, shortened: as §1
# [9] = target: Neu5Ac(a2-8)Neu5Ac(a2-8)Neu5Ac(a2-3)Gal(b1-4)Glc
# Procedure, shortened: as §1
# [10] = target: Neu5Ac(a2-8)Neu5Ac(a2-8)Neu5Ac(a2-3)[Gal(b1-3)GalNAc(b1-4)]Gal(b1-4)Glc
# Procedure, shortened: as §1
# [11] = target: Neu5Ac(a2-8)Neu5Ac(a2-8)Neu5Ac(a2-3)[GalNAc(b1-4)]Gal(b1-4)Glc
# Procedure, shortened: as §1
# [12] = target: Neu5Ac(a2-8)Neu5Ac(a2-8)Neu5Ac(a2-8)Neu5Ac(a2-3)[GalNAc(b1-4)]Gal(b1-4)Glc
# Procedure, shortened: as §1
# [13] = target: Neu5Ac(a2-8)Neu5Gc(a2-3)Gal(b1-4)GlcNAc
# Procedure, shortened: as §1
# [14] = target: Neu5Ac(b2-6)Gal(b1-4)GlcNAc
# Procedure, shortened: as §1
# Neu5Ac(b2-6)GalNAc = target: Neu5Ac(b2-6)GalNAc
# Procedure, shortened: as §1
# [15] = target: Neu5Ac9Ac(a2-3)Gal(b1-3)GlcNAc
# Procedure, shortened: as §1
# [16] = target: Neu5Ac9Ac(a2-3)Gal(b1-4)GlcNAc
# Procedure, shortened: as §1
# [17] = target: Neu5Ac9Ac(a2-6)Gal(b1-4)GlcNAc
# Procedure, shortened: as §1
# [18] = target: Neu5Gc(a2-3)Gal(b1-3)GlcNAc
# Procedure, shortened: as §1
# [19] = target: Neu5Gc(a2-3)Gal(b1-3)[Fuc(a1-4)]GlcNAc
# Procedure, shortened: as §1
# Neu5Gc(a2-3)Gal(b1-4)Glc = target: Neu5Gc(a2-3)Gal(b1-4)Glc
# Procedure, shortened: as §1
# [20] = target: Neu5Gc(a2-3)Gal(b1-4)GlcNAc
# Procedure, shortened: as §1
# [21] = target: Neu5Gc(a2-3)Gal(b1-4)GlcNAc(b1-3)Gal(b1-4)GlcNAc(b1-2)Man(a1-3)[Neu5Gc(a2-3)Gal(b1-4)GlcNAc(b1-3)Gal(b1-4)GlcNAc(b1-2)Man(a1-6)]Man(b1-4)GlcNAc(b1-4)GlcNAc
# Procedure, shortened: as §1
# [22] = target: Neu5Gc(a2-3)Gal(b1-4)[Fuc(a1-3)]GlcNAc
# Procedure, shortened: as §1
# [23] = target: Neu5Gc(a2-6)Gal(b1-4)GlcNAc
# Procedure, shortened: as §1
# Neu5Gc(a2-6)GalNAc = target: Neu5Gc(a2-6)GalNAc
# Procedure, shortened: as §1
# [24] = target: Neu5Gc(a2-8)Neu5Ac(a2-3)Gal(b1-4)GlcNAc
# Procedure, shortened: as §1
# [25] = target: Neu5Gc(a2-8)Neu5Gc(a2-3)Gal(b1-4)GlcNAc
# Procedure, shortened: as §1
# [26] = target: Neu5Gc(a2-8)Neu5Gc(a2-3)Gal(b1-4)GlcNAc(b1-3)Gal(b1-4)GlcNAc
# Procedure, shortened: as §1
# [27] = target: Neu5Gc(a2-8)Neu5Gc(a2-6)Gal(b1-4)GlcNAc
# Procedure, shortened: as §1
# [28] = target: Neu5Gc(b2-6)Gal(b1-4)GlcNAc
# Procedure, shortened: as §1
binder,measurement,setting,value
"SspB C123 (Streptococcus gordonii), Q54186 (protein) MAHFHYSSLLAQPQINKEIKNEDGVDIDRTLVAKQSIGKFELKTEALTAGRPKTTSFVLVDPLPTGYKFDLDATKAASTGFDTTYDEASHTVTFKATDETLATYNADLTKPVETLHPTVVGRVLNDGATYTNNFTLTVNDAYGIKSNVVRVTTPGKPNDPDNPNNNYIKPTKVNKNKEGLNIDGKEVLAGSTNYYELTWDLDQYKGDKSSKEAIQNGFYYVDDYPEEALDVRPDLVKVADEKGNQVSGVSVQQYDSLEAAPKKVQDLLKKANITVKGAFQLFSADNPEEFYKQYVSTGTSLVITDPMTVKSEFGKTGGKYENKAYQIDFGNGYATEVVVNNVPKITPKKDVTVSLDPTSENLDGQTVQLYQTFNYRLIGGFIPQNHSEELEDYSFVDDYDQAGDQYTGNYKTFSSLNLTMKDGSVIKAGTDLTSQTTAETDATNGIVTVRFKEDFLQKISLDSPFQAETYLQMRRIAIGTFENTYVNTVNKVAYASAAALEHHHHHH",glycan array binding signal (z-score),[1],0.529
same,glycan array binding signal (z-score),Neu5Ac(a2-8)Neu5Ac,-0.114
same,glycan array binding signal (z-score),[2],0.292
same,glycan array binding signal (z-score),[3],-1.38
same,glycan array binding signal (z-score),[4],-0.987
same,glycan array binding signal (z-score),[5],-0.93
same,glycan array binding signal (z-score),[6],-0.243
same,glycan array binding signal (z-score),[7],-0.217
same,glycan array binding signal (z-score),[8],0.341
same,glycan array binding signal (z-score),[9],-1
same,glycan array binding signal (z-score),[10],5.25
same,glycan array binding signal (z-score),[11],2.29
same,glycan array binding signal (z-score),[12],-0.486
same,glycan array binding signal (z-score),[13],-0.198
same,glycan array binding signal (z-score),[14],-0.062
same,glycan array binding signal (z-score),Neu5Ac(b2-6)GalNAc,0.518
same,glycan array binding signal (z-score),[15],-1.32
same,glycan array binding signal (z-score),[16],-0.938
same,glycan array binding signal (z-score),[17],0.758
same,glycan array binding signal (z-score),[18],-0.556
same,glycan array binding signal (z-score),[19],-1.01
same,glycan array binding signal (z-score),Neu5Gc(a2-3)Gal(b1-4)Glc,-0.645
same,glycan array binding signal (z-score),[20],0.069
same,glycan array binding signal (z-score),[21],1.1
same,glycan array binding signal (z-score),[22],0.32
same,glycan array binding signal (z-score),[23],-1.07
same,glycan array binding signal (z-score),Neu5Gc(a2-6)GalNAc,-0.608
same,glycan array binding signal (z-score),[24],0.879
same,glycan array binding signal (z-score),[25],-0.249
same,glycan array binding signal (z-score),[26],-1.2
same,glycan array binding signal (z-score),[27],-0.685
same,glycan array binding signal (z-score),[28],-1.21

# Another view of part of the listing above.
binder	measurement	setting	value
SspB C123 (Streptococcus gordonii), Q54186 (protein) MAHFHYSSLLAQPQINKEIKNEDGVDIDRTLVAKQSIGKFELKTEALTAGRPKTTSFVLVDPLPTGYKFDLDATKAASTGFDTTYDEASHTVTFKATDETLATYNADLTKPVETLHPTVVGRVLNDGATYTNNFTLTVNDAYGIKSNVVRVTTPGKPNDPDNPNNNYIKPTKVNKNKEGLNIDGKEVLAGSTNYYELTWDLDQYKGDKSSKEAIQNGFYYVDDYPEEALDVRPDLVKVADEKGNQVSGVSVQQYDSLEAAPKKVQDLLKKANITVKGAFQLFSADNPEEFYKQYVSTGTSLVITDPMTVKSEFGKTGGKYENKAYQIDFGNGYATEVVVNNVPKITPKKDVTVSLDPTSENLDGQTVQLYQTFNYRLIGGFIPQNHSEELEDYSFVDDYDQAGDQYTGNYKTFSSLNLTMKDGSVIKAGTDLTSQTTAETDATNGIVTVRFKEDFLQKISLDSPFQAETYLQMRRIAIGTFENTYVNTVNKVAYASAAALEHHHHHH	glycan array binding signal (z-score)	[7]	-0.217
same	glycan array binding signal (z-score)	[8]	0.341
